Measurements taken from paper PMC11925728.
Construct, isoform or probe ends are uncertain for at least one entry. For part of these data: Negatives hold for the conditions tested. For part of these data: At least one verdict rests on a figure or table, not on a statement of the authors. For part of these data: A weaker result is weaker than the reference pair of the same experiment. For part of these data: Results from cells or extracts need not show a direct contact.

Assays:
His-PRRX1A (His-PA) = assay: MST; conditions: 10 mM Mg2+, Kd only in figure; MST: 20 mM Tris-HCl pH 7.4, 150 mM NaCl, 10 mM MgCl2, 2.5% glycerol, 0.05% Tween 20, RT; recombinant protein; protein details: His (pET-28a); label: 3' 6-FAM on strand 1
MBP-PRRX1B (MBP-PB) = MBP-PRRX1B (MBP-PB) (UniProt P54821); assay: pull-down; conditions: recombinant protein, protein details: N-term MBP (pMAL-c2X)
MBP-PA deltaC = assay: pull-down; conditions: recombinant protein; protein details: N-term MBP; label: 3' biotin on strand 1
MBP-PA N = assay: pull-down; conditions: recombinant protein; protein details: N-term MBP; label: 3' biotin on strand 1
Ku70 + Ku80 + DNA-PKcs = assay: pull-down; conditions: protein in an extract, label: 3' biotin on strand 1
MBP-PRRX1A (MBP-PA) = assay: EMSA; conditions: 10 mM Mg2+; EMSA: 20 mM Tris-HCl pH 7.4, 10 mM MgCl2, 2.5% glycerol, 0.05% NP-40, 0.1 ug/ul BSA, RT, 200 nM DNA; recombinant protein; protein details: N-term MBP (pMAL-c2X)
[1] = binds, weaker than PA, label: 3' biotin on strand 1

Sequence: AAGATGTTGTTTACACGAGGGCTCGAGCCCTCGTGTAAACAACATCTTTTTTTG / CAAAAAAAGATGTTGTTTACACGAGGGCTCGAGCCCTCGTGTAAACAACAT [MST 5' overhang (Oligo#3-S/#4-A)]
- binding result (His-PRRX1A (His-PA)): binds

Sequence: CAAAAAAAGATGTTGTTTACACGAGGGCTCGAGCCCTCGTGTAAACAACATCTT / GAGCCCTCGTGTAAACAACATCTTTTTTTG [3' overhang DNA (Oligo#1-A/#2-S)]
- binding result (MBP-PRRX1B (MBP-PB); binds, weaker than PA, label: 3' biotin on strand 2): binds more weakly

Sequence: AAGATGTTGTTTACACGAGGGCTCGAGCCCTCGTGTAAACAACATCTTTTTTTG / CAAAAAAAGATGTTGTTTACACGAGGGCTC [5' overhang DNA (Oligo#1-S/#2-A)]
- binding result (MBP-PRRX1B (MBP-PB); [1]): binds more weakly

Sequence: AAGATGTTGTTTACACGAGGGCTCGAGCCCTCGTGTAAACAACATCTTTTTTTG / CAAAAAAAGATGTTGTTTACACGAGGGCTC [MST 5' overhang (Oligo#3-S/#6-A)]
- binding result (His-PRRX1A (His-PA)): binds

Sequence: AAGATGTTGTTTACACGAGGGCTCGAGCCCTCGTGTAAACAACATCTTTTTTTG (double strand) [blunt dsDNA 54 bp, biotinylated (Oligo#1-S/#1-A)]
- binding result (MBP-PRRX1B (MBP-PB); [1]): binds more weakly
- binding result (MBP-PA deltaC): no binding
- binding result (MBP-PA N): no binding
- binding result (Ku70 + Ku80 + DNA-PKcs; EV control lysate, less than with PRRX1A): binds more weakly
- binding result (Ku70 + Ku80 + DNA-PKcs; lysate with FLAG-PRRX1A overexpressed, more enriched than EV): binds

Sequence: AAGATGTTGTTTACACGAGGGCTCGAGCCCTCGTGTAAACAACATCTTTTTTTG / CAAAAAAAGATGTTGTTTACACGAGGGCTCGAGCCCTCGTGTAAACAA [MST 5' overhang (Oligo#3-S/#5-A)]
- binding result (His-PRRX1A (His-PA)): binds

Sequence: GAGCCCTCGTGTAAACAACATCTTTTTTTG [ssDNA Oligo#2-S]
- binding result (MBP-PRRX1B (MBP-PB); label: 3' biotin, single-stranded DNA): no binding

Sequence: AAGATGTTGTTTACACGAGGGCTCGAGCCCTCGTGTAAACAACATCTTTTTTTG (double strand) [blunt dsDNA 54 bp, unlabeled (EMSA)]
- binding result (MBP-PRRX1A (MBP-PA)): binds
